Test results published in PMC13623127.
No constants are given. Whether binding was seen depends on the method and setting.

Sequences of proteins named here, by UniProt entry; tags and fusion partners are left off.
UniProt P23297: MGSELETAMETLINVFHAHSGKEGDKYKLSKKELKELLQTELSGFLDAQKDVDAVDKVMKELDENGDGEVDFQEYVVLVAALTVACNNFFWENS
UniProt P29034: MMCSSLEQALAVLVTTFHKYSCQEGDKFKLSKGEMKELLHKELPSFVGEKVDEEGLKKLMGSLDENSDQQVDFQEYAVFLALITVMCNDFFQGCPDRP
UniProt P26447: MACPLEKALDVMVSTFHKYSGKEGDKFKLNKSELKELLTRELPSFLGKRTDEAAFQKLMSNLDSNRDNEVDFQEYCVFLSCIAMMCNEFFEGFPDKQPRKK
UniProt P60903: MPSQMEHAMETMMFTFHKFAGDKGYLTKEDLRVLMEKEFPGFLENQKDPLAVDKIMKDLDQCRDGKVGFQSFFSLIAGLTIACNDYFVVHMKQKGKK

Tests used:
Test in all cases: SPR; TNFSF member immobilised by amine coupling on a ProteOn GLH chip, S100 protein as analyte; 25°C; 10 mM HEPES-NaOH, 150 mM NaCl, 0.05% TWEEN 20, 1 mM CaCl2, pH 7.4; both purified
[1] = target: BAFF, TNF ligand superfamily member 13B, soluble form (human)
[2] = target: OX40L, TNF ligand superfamily member 4, soluble form (human)
[3] = target: CD40L, TNF ligand superfamily member 5, soluble form (human)
[4] = target: T1, RANKL, TNF ligand superfamily member 11, soluble form (human)
T1 sequence: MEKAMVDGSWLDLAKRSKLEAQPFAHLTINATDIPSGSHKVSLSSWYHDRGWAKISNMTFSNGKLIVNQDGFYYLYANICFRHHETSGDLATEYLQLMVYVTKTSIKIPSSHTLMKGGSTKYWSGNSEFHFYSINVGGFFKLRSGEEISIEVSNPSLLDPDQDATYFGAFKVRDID

[5] = target: FasL, TNF ligand superfamily member 6, soluble form (human)

Row | Substance | binding [1] | binding [2] | binding [3] | binding [4] | binding [5]
1 | S100A1 (from UniProt P23297 1-94) | no binding (tested: analyte 62.5 nM to 16 μM) | no binding (tested: analyte 62.5 nM to 16 μM) | no binding (tested: analyte 62.5 nM to 16 μM) | no binding (tested: analyte 62.5 nM to 16 μM) | no binding (tested: analyte 62.5 nM to 16 μM)
2 | S100A2 (from UniProt P29034 1-98) | no binding (tested: analyte 62.5 nM to 16 μM) | no binding (tested: analyte 62.5 nM to 16 μM) | no binding (tested: analyte 62.5 nM to 16 μM) | no binding (tested: analyte 62.5 nM to 16 μM) | no binding (tested: analyte 62.5 nM to 16 μM)
3 | S100A4 (from UniProt P26447 1-101) | no binding (tested: analyte 62.5 nM to 16 μM) | no binding (tested: analyte 62.5 nM to 16 μM) | no binding (tested: analyte 62.5 nM to 16 μM) | no binding (tested: analyte 62.5 nM to 16 μM) | no binding (tested: analyte 62.5 nM to 16 μM)
4 | S100A10 (from UniProt P60903 1-97) | no binding (tested: analyte 62.5 nM to 16 μM) | no binding (tested: analyte 62.5 nM to 16 μM) | no binding (tested: analyte 62.5 nM to 16 μM) | no binding (tested: analyte 62.5 nM to 16 μM) | no binding (tested: analyte 62.5 nM to 16 μM)
